## Library screening results

By UniProt entry, the sequences of proteins in these tests, tags left out.
UniProt E9BF75, entry or part of it: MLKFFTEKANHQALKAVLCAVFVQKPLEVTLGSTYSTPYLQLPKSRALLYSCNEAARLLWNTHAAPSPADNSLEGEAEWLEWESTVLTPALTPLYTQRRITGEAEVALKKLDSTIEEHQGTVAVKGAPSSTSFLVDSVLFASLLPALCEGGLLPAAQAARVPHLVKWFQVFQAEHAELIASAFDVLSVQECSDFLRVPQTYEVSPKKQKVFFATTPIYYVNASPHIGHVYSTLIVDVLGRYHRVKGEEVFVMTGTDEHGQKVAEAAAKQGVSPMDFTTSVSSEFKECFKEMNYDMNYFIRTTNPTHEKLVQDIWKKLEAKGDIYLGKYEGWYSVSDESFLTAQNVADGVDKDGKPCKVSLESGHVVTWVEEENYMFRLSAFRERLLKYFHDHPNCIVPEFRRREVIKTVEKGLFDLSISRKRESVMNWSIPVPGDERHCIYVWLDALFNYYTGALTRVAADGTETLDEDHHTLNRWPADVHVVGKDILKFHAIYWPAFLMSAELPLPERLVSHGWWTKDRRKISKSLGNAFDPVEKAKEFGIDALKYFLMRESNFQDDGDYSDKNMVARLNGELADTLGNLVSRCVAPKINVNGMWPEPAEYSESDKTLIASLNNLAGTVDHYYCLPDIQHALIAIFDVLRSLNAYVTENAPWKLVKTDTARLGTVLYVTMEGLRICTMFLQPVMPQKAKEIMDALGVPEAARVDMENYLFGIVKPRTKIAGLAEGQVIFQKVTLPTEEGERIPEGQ

From ChEMBL document CHEMBL3988442, “University of Dundee, Small-Polar-MMV Screening Library” (2021).

Results are percentages, as filed. The record does not define 0% and 100%; most values in the screen are far below 50% and negative numbers occur (in some assays of this library far below -100). Compounds were drawn at random from those tested, without regard to their results.

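Primary screen of methionyl-tRNA synthetase; the read-out is not stated. Target: Methionyl-tRNA synthetase (putative), Leishmania donovani (UniProt E9BF75). The test concentration is not given. The values are filed as inhibition. Size under these conditions: about 68,000 compounds, about 24 of them at 50% or above in at least one test.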

structure | Inhibition
COc1ccc(-c2ccc(C(=O)NCCCC(N)=O)c(F)c2)c(F)c1 | 11
CCC1CCCCN1Cc1ncc(-c2ccc(OC)cc2)o1 (stereo not given) | 15.57
CC1(C)CNC(=O)c2nc(-c3n[nH]c(=O)[nH]3)[nH]c2C1 | 10.94
Cc1cccc(CN2C(=O)CC[C@@H]3[C@H]2CCN3Cc2nccn2C)n1 | 15.56
CCN(CC)c1ncc(S(=O)(=O)c2cccc(C)c2)c(N)n1 | 4.826
COCC(=O)N[C@H]1C[C@@H](Cc2cc(CN3CCCCC3)on2)C1(C)C | 2.932
O=C(NC1CC1)N(CCc1ccccc1)C1CCOC1 (stereo not given) | 10.99
O=C(O)c1cccn1-c1ccc2c(c1)OCCO2 | 17.76
Cc1cnn(CC(C)NCc2nc(-c3ccoc3)no2)c1 (stereo not given) | 3.683
Cc1ccc(CN2C[C@@H]3CCCO[C@@H]3[C@H](N(C)Cc3ccco3)C2)s1 | 4.575
Cc1nn(C)cc1Cn1cc(Cl)c(N)n1 | 15.04
Cc1cccc(-c2noc(CN3CCc4c(ncn4C4CC4)C3)n2)c1 | 13.46
Cc1cc(C)c(C(=O)NCCNc2ncnc3ccccc23)c(=O)[nH]1 | 10.51
CN(C)C(=O)[C@H]1C[C@H]2OCC[C@H]2N(Cc2ccccn2)C1 | 15.56
Cc1ccoc1C(=O)N1CCn2nnc(COc3cccnc3)c2C1 | 1.333
Cc1nn(C)c2cnn(Cc3ccc(C(=O)NC4CC4)o3)c12 | 4.7
Cc1cnn(CC(C)NCCc2cccs2)c1 (stereo not given) | -8.521
O=S1(=O)CCC(n2cc(CNCC3(c4ccccc4)CC3)cn2)C1 (stereo not given) | -51.42
Cc1cccc(CN2C[C@@H]3CN(C(=O)c4ccsc4)C[C@@H]3C2=O)n1 | 11.11
CCCC(C#N)NC(=O)COC1CCCCC1 (stereo not given) | 8.179
COc1ccc(NC(=O)c2cc3c([nH]c2=O)CCCC3=O)c(OC)c1 | 10.53
CC(C)CC(=O)N1CC(=O)N(Cc2ccco2)CC(O)C1 (stereo not given) | 4.658
Cc1ncccc1C(=O)Nc1cccc(OCC(F)F)n1 | 15.22
Cc1cc(CN(CC(N)=O)CC(C)C)on1 | 6.344
Cc1cc(Nc2nc(C)cc(C)n2)cc(C2CCCN2)n1 (stereo not given) | 14.15
COc1ccc(C)cc1NC(=O)Cn1nc(C)c(C#N)c1N | 12.2
COCc1nc(CNc2cccc(-c3csc(C)n3)c2)cs1 | 6.186
CC(C)(C)OC(=O)N1CCCc2ccc(NCc3cc[nH]c3)cc21 | 20.5
CN(Cc1cncnc1)Cc1cn2c(n1)CN(C1CCOC1)CC2 (stereo not given) | 16.32
Cc1noc(C)c1CNC(C)c1ccc(S(=O)(=O)N(C)C)cc1 (stereo not given) | 6.793
CC(C)NC(=O)Nc1ccc(CNCc2cccc(C#N)c2)cc1 | 16.38
COCCc1noc(CN2CCCC2Cn2nc(C)nc2C)n1 (stereo not given) | 5.128
CCN1C[C@H]2CCN(Cc3ccncc3)C(=O)[C@@H]2C1 | 7.843
CC(C)(C)C(CCO)NC(=O)Nc1ccccc1 (stereo not given) | 13.71
CC(C)N1C(=O)CC(NC(=O)c2cc(Cl)sc2Cl)C1=O (stereo not given) | 14.29
O=C1NCCN1C1CCCN(Cc2coc(-c3ccc(F)cc3)n2)C1 (stereo not given) | 8.571
N#CCSCCCN1CCC(C(=O)N2CCCCCC2)CC1 | 9.893
CO[C@H]1CC[C@H]2[C@H]1OCCN2Cc1ccc(F)c(F)c1 | -3.014
Cc1ccc(C(=O)N2Cc3ccccc3OC3(CCOCC3)C2)cn1 | 3.215
Cc1cnn(CC2CCCN2CCCc2nc3ccccc3o2)c1 (stereo not given) | 13.02
CC(C)(C)NS(=O)(=O)c1ccccc1CNCc1cccc(O)c1 | 12.41
CCn1cnnc1CCNC(=O)c1ccc(F)c(Br)c1 | 16.11
O=C(CCC1CCCCO1)NCc1cnn(-c2ccc(F)cc2F)c1 (stereo not given) | -0.8357
CCn1cnnc1C1CCN(C(=O)c2ccnc(N(C)C)c2)CC1 | 10.7
CCN1CCN(C(C)(C)CNc2nc(C)cc(C3CCC3)n2)CC1 | 8.657
Cc1cnccc1NCCNC(=O)[C@H]1CNC[C@H](C(=O)N2CCCC2)C1 | -0.6135
CC(C)C(=O)N(C)CC(=O)Nc1ccc(Br)cn1 | 23.99
N#Cc1ccc(N2CCC3(CC2)CC(Oc2cccnc2)CO3)cc1 (stereo not given) | 3.806
Cn1c(NCC(O)c2ccc(F)cc2)c(C#N)c(=O)n(C)c1=O (stereo not given) | 20
Cc1ccc(CN2CCCC(c3cnccn3)C2)s1 (stereo not given) | 13.35
Cc1nnc(CN2CCCC2c2ccc(Cl)c(Cl)c2)o1 (stereo not given) | 12.57
C/C(=C\c1ccco1)CN(C)C(C)c1ccccn1 (stereo not given) | 5.128
CC(C)OCc1nn(C)c2c1CCN(CC1CC1)C2 | 12.57
OCCN1CCN(Cc2cc3c(cc2Br)OCCO3)CC1 | 5.435
CC(C)CN(C(=O)COc1ccc(C(N)=O)cc1)C1CCN(C)CC1 | 8.505
Cc1cnc(C(=O)N2CCCC(n3nc(C)nc3C)C2)cn1 (stereo not given) | 16.87
CCC(CNC(=O)c1cncc(Br)c1)N1CCc2ccccc2C1 (stereo not given) | 1.087
COc1ccc(OC)c(C(=O)Nc2cccnc2-n2cncn2)c1 | 11.15
NCc1ccccc1Sc1ccc(O)cc1 | 17.89
N#CC1(NC(=O)COc2cc(Cl)cc(Cl)c2)CCOCC1 | 13.04
CCOc1ncccc1C(=O)N1CCCC1c1c(C)nn(C)c1OC (stereo not given) | 12.2
C=Cn1cc(CN2CCN(CC3(c4ccccc4)CC3)CC2)c(C)n1 | 12.19
COCC(=O)N1CCC(c2cc(-c3ccc(N)nc3)cc(C)n2)CC1 | 13.92
CC(NC(=O)NCC(C)(C)C(N)=O)c1nc(-c2ccccc2)cs1 (stereo not given) | 15.86
COc1nn(C)c2c1CCCN(C(=O)c1cscn1)C2 | 12.4
CN1CCN(C2CCN(CCOc3ccc(Cl)cc3)CC2)C1=O | 11.68
COc1ccnc(NC(=O)c2cscc2C)c1 | 20.63
COc1ncccc1CNCc1cnc(N2CCOCC2)nc1 | 11.58
Cc1c(Cl)cccc1NC(=O)Cn1cc(C(=O)O)ccc1=O | -3.896
CN(Cc1ccc([S+](C)[O-])cc1)c1ccc(C(F)(F)F)cn1 (stereo not given) | 15.85
Cc1ccc(S(=O)(=O)N2CCOc3ccccc32)cc1C(=O)O | 4.908
O=C(Cc1cn2ccsc2n1)N1CCCC(n2ccnc2)C1 (stereo not given) | 11.72
c1ccc(CN2C[C@@H]3CCCO[C@@H]3[C@H](Nc3ccccn3)C2)nc1 | 17.47
CCn1ccnc1CN1CCN(Cc2ccc(C)o2)[C@@H]2CS(=O)(=O)C[C@@H]21 | 15.4
Cc1cc(-n2cncn2)ccc1C(=O)Nc1ccc(N2CCCC2)cn1 | -5.072
CC(=O)N1CCCC1c1nnn2cc(Nc3ccccc3)ccc12 (stereo not given) | 4.965
COCCNc1ccc(CC2CCNC2)cn1 (stereo not given) | 11.17
CC(=O)NCCC1CCN(c2nc(C(C)(C)C)nc3c2cnn3C)CC1 | 17.36
O=C(NC[C@H]1OC[C@@H](NCc2ccccc2F)[C@@H]1O)Nc1ccccc1 | 12.05
CC(C)C1CN(c2cnccn2)CCC(=O)N1Cc1ccc(F)cc1 (stereo not given) | 3.226
CC(C(=O)N1CCCN(c2ncccc2C#N)CC1)n1cncn1 (stereo not given) | -1.397
COCc1nc2cc(NCc3ccncc3)ccc2o1 | 21.9
CNC(=O)NC(=O)C(NCc1ccccc1)c1ccccc1 (stereo not given) | 3.237
CC(C)(C)c1nnc(NCC(=O)N2CCc3sccc3C2)s1 | 15.93
COC(=O)c1cc2n(n1)CCCN(C(=O)Cc1c[nH]c3ccccc13)C2 | 6.03